Source: patent US20220251081A1, “HETEROBICYCLIC INHIBITORS OF MAT2A AND METHODS OF USE FOR TREATING CANCER” (priority 2019, published 2022)
The match of structure and compound is tentative.

By UniProt entry, the sequences of proteins in these tests, tags left out.
UniProt P31153, whole entry: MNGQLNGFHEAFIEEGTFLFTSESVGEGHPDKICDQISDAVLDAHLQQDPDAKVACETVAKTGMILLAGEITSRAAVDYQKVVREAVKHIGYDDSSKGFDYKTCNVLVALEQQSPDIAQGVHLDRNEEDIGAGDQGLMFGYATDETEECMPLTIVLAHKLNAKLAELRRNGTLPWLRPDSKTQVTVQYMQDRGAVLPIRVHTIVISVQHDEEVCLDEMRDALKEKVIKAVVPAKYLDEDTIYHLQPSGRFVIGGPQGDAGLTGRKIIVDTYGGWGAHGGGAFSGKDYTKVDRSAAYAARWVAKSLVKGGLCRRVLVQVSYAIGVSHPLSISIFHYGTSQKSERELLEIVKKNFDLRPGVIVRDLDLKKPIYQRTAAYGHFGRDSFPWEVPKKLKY

Tests used:
MAT2A homodimer = MAT2A homodimer (Homo sapiens, UniProt P31153); assay: Biochemical assay: inhibition of recombinant MAT2A homodimer (phosphate release, PiColorLock Gold); details: read-out: Enzyme Inhibition; MAT2A IC50 score
Method: Mat2A protein was expressed by recombinant baculovirus in SF9 infected cells using the Bac to Bac system cloned into the pFASTBAC1 vector (Invitrogen, Carlsbad, Calif.). Recombinant MAT2A was isolated from the cell lysate of 150 g of infected cells using HP Ni sepharose column chromatography. Recombinant MAT2A homodimer was eluted with 250 and 500 mM imidazole, and fractions containing MAT2A were identified by sodium dodecyl sulfate polyacrylamide gel electrophoresis and pooled.
For determination of the inhibitory potency of compounds against the MAT2A homodimer, protein was diluted to 4 μg/mL in assay buffer (50 mM Tris, pH 8.0, 50 mM KCl, 15 mM MgCl2, 0.3 mM EDTA, 0.005% [w/v] bovine serum albumin [BSA]). Test compound was prepared in 100% dimethyl sulfoxide (DMSO) at 50× the desired final concentration. A 1 μL volume of compound dilution was added to 40 μL of enzyme dilution and the mixture was allowed to equilibrate for 60 minutes at 25° C. The enzymatic assay was initiated by the addition of 10 μL of substrate mix (500 μM ATP, pH 7.0, 40 μM L-methionine in 1× assay buffer), and the mixture was incubated for a further 60 minutes at 25° C. The reaction was halted and the liberated phosphate released by the enzyme in stoichiometric amounts by the production of S-adenosyl methionine (SAM) was measured using the PiColorLock Gold kit (Innova Biosciences, UK). […]

[1] = system: SAM in HCT116 human colon carcinoma cell line with deleted MTAP gene; assay: Cellular assay of target engagement (SAM): SAM level by LC-MS/MS after 72 hrs; details: read-out: Cell 72 h SAM Inhibition (MTAP −/−), IC50 score
Method: Cellular Assay of Target Engagement (SAM)
Measurement of MAT2A activity in cells was made by direct quantitation of the abundance of the product of its enzymatic activity, SAM. Cancer cells were treated with candidate MAT2A inhibitors for a suitable incubation period, and the cells were then lysed using a reagent which quenched any further enzyme activity. Soluble metabolites including SAM were collected and SAM itself was directly measured from the lysate using quantitative LC-MS/MS.
A typical assay was performed using an HCT116 human colon carcinoma cell line which was genetically engineered to delete the MTAP gene (commercially available from Horizon Discovery). This cell line was utilized because it was determined that loss of the MTAP gene predicts sensitivity to MAT2A inhibitors. Cells were plated in 96-well dishes at appropriate cell density. Following 24 hours, cells were then treated with the candidate MAT2A inhibitor. […]
To quantitate SAM levels following compound treatment, cells were gently washed once in ammonium carbonate buffer (75 mM at pH 7.4), placed on dry ice, and lysed with metabolite extraction buffer (80% cold methanol and 20% water (v/v) with acetic acid at 1M final concentration with 200 ng/mL deuterated d3-SAM as internal control). […]

HCT116 MTAP-/- = assay: Inhibition of cellular proliferation, 4 days, Cell Titer Glo, HCT116 MTAP-/-; details: read-out: 4 Day Relative Growth Inhibition (MTAP −/−), IC50 score
Method: (§1) Assay for Inhibition of Cellular Proliferation
(§2) Test compound impact on cancer cell growth was assessed by treating cancer cells with compound for 4 days and then measuring proliferation using an ATP-based cell proliferation readout (Cell Titer Glo, Promega Corporation).
(§3) In a typical assay an isogenic pair of HCT116 human colon carcinoma cell lines which vary only in MTAP deletion status (HCT116 MTAP +/+ and HCT116 MTAP−/−) were plated in 96-well dishes at appropriate cell density. Following 24 hours, cells were then treated with the candidate MAT2A inhibitor. Prior to addition to cells, the compound was first serially diluted in 100% DMSO, typically as a 3-fold serial dilution starting at 500× top dose with 10 dose points including DMSO only control. […]
(§4) To measure inhibition of cellular proliferation, cells were allowed to equilibrate to room temperature for 30 minutes, and were then treated with 125 μL of Cell Titer Glo reagent. […] Luminescent signal was then measured using a plate-based luminometer Veritas version 1.9.2 using ATP standard curve to confirm assay reproducibility from run to run. This luminescence measure was converted to a proliferation index by subtracting from each data point the ATP luminescence signal measured from a bank (no cells) well and dividing by the ATP luminescence signal measured in 0.2% DMSO control well adjusted for signal in blank well. […]

HCT116 MTAP +/+ = assay: Inhibition of cellular proliferation, 4 days, Cell Titer Glo, HCT116 MTAP+/+; details: read-out: 4 Day Relative Growth Inhibition (MTAP +/+), IC50 score
Method: as §1, §2, §3, §4

Which IC50 (MAT2A homodimer) does the source give for COc1ccc(-n2c(=O)c(-c3ccc4nn(C)cc4c3)nc3ccc(OCC(F)(F)F)nc32)cn1 here?
The IC50 was under 100 nM.

And the IC50 [1]?
Its IC50 is under 100 nM.

What about the IC50 (HCT116 MTAP-/-) of the same compound?
The IC50 was under 100 nM.

And the IC50 (HCT116 MTAP +/+)?
Its IC50 is over 1000 nM.
